# In patent US20180237831A1:
# Results are given in words; binding and its absence hold for the method and conditions named. Some results given as binding are weak or reduced against the parent protein; the word gives no strength.
# T1: chromobox protein 8 (CBX8) (UniProt Q9HC52)
# T1 sequence (looked up): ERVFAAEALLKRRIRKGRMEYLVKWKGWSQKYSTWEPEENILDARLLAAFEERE
# Biological target: T1, chromobox protein 8 (CBX8)
# Assay: crosslinking competition: 5 mM SK(me3)LAF peptide against CBX peptide-ssDNA on CBX8, SDS-PAGE
binder,measurement,value
SKLAF (K(me3): trimethyl-lysine at position 2) [SK(me3)LAF peptide],binding,binds
